The target in assay [1] is T1, liver X receptor α (LXRα) (human (endogenous in HepG2)) (UniProt Q13133).
T1 sequence: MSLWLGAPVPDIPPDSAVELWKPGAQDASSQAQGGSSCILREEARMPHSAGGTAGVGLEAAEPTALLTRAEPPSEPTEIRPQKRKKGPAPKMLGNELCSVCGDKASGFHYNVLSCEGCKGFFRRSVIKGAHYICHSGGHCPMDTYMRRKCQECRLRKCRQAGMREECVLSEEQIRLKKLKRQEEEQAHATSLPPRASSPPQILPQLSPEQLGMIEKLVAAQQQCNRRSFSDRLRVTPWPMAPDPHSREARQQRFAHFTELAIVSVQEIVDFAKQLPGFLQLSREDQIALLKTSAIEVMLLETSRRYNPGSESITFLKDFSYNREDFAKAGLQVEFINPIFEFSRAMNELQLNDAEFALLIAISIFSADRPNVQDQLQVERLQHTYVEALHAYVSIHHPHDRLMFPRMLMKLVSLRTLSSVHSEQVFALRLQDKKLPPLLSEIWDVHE
As to the kind of experiment: condition: only cells not treated with the LXRα agonist T0901317; co-IP; as a1, but HepG2 cells infected with Ad-JMJD2B and incubated in the absence of T0901317.

The chains behind the UniProt entries cited, without tags or fusion partners.
UniProt O94953: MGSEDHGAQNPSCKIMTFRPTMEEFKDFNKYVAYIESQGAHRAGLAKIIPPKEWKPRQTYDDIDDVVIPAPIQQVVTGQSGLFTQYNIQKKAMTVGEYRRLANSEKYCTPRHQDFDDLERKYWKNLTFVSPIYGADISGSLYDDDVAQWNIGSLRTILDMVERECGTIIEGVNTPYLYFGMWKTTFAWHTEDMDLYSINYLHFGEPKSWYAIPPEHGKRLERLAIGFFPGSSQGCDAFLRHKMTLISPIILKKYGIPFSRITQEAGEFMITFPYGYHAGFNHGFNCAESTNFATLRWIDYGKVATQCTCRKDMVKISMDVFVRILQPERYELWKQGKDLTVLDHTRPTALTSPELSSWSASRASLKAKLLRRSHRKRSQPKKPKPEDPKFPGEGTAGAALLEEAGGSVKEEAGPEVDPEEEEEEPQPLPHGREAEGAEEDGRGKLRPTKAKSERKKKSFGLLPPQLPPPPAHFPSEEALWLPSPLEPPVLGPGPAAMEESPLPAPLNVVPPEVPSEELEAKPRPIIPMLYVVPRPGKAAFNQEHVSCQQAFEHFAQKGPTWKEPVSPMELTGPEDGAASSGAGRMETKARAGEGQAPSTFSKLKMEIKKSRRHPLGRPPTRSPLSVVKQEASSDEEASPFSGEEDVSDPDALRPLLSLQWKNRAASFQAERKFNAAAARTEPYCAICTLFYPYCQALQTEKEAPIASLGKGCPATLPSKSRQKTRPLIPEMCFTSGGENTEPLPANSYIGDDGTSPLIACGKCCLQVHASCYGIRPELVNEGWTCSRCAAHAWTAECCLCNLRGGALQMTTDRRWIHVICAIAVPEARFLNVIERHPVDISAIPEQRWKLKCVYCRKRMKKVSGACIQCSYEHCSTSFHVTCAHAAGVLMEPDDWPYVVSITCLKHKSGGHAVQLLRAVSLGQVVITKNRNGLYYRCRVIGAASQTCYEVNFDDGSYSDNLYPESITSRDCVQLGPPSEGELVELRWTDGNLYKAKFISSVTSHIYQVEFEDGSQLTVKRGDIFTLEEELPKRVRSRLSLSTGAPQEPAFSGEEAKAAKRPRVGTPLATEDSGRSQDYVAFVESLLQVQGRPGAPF

Assay [2] deals with T1, liver X receptor α (LXRα) (human (endogenous in HepG2)). As to the kind of experiment: co-IP; HepG2 cells infected with Ad-JMJD2B and incubated with T0901317 for 24 h; lysis in 25 mM Tris-HCl pH 7.4, 150 mM NaCl, 1% NP-40, 1 mM EDTA, 5% glycerol; 500 μg protein; IP with JMJD2B antibody overnight at 4 °C, Protein A/G Plus-Agarose, blot for LXRα; reverse IP with LXRα antibody and blot for JMJD2B (Figure S2).

For assay [3], the target named is Jumonji domain-containing protein 2B (JMJD2B) (UniProt O94953). As to the kind of experiment: condition: only cells not treated with the LXRα agonist T0901317; co-IP; as a1, but HepG2 cells infected with Ad-JMJD2B and incubated in the absence of T0901317.
For assay [4] the target is unchanged. As to the kind of experiment: co-IP; HepG2 cells infected with Ad-JMJD2B and incubated with T0901317 for 24 h; lysis in 25 mM Tris-HCl pH 7.4, 150 mM NaCl, 1% NP-40, 1 mM EDTA, 5% glycerol; 500 μg protein; IP with JMJD2B antibody overnight at 4 °C, Protein A/G Plus-Agarose, blot for LXRα; reverse IP with LXRα antibody and blot for JMJD2B (Figure S2).

No constants are given. Whether binding was seen depends on the method and setting. In cells and extracts the contact can be indirect. Some entries that bind do so weakly or less than the wild type.

With “Jumonji domain-containing protein 2B (JMJD2B) (from UniProt O94953 1-1096) (enzyme)”, the binding result in assay [1] is “no binding”; in assay [2] it was “binds”.

B1: liver X receptor α (LXRα) (receptor, UniProt Q13133 1-447)
chain: MSLWLGAPVPDIPPDSAVELWKPGAQDASSQAQGGSSCILREEARMPHSAGGTAGVGLEAAEPTALLTRAEPPSEPTEIRPQKRKKGPAPKMLGNELCSVCGDKASGFHYNVLSCEGCKGFFRRSVIKGAHYICHSGGHCPMDTYMRRKCQECRLRKCRQAGMREECVLSEEQIRLKKLKRQEEEQAHATSLPPRASSPPQILPQLSPEQLGMIEKLVAAQQQCNRRSFSDRLRVTPWPMAPDPHSREARQQRFAHFTELAIVSVQEIVDFAKQLPGFLQLSREDQIALLKTSAIEVMLLETSRRYNPGSESITFLKDFSYNREDFAKAGLQVEFINPIFEFSRAMNELQLNDAEFALLIAISIFSADRPNVQDQLQVERLQHTYVEALHAYVSIHHPHDRLMFPRMLMKLVSLRTLSSVHSEQVFALRLQDKKLPPLLSEIWDVHE
With B1, the binding result is given as “no binding” in assay [3] and “binds” in assay [4].

The values are drawn from paper PMC7664202.
